Data on 43 molecules can be found in PubChem BioAssay AID977622 (Broad Institute, 2014).

Assay [1] is described as follows: wild-type E. coli growth inhibition versus h38 humanized strain – h38 mutant RFP, wild-type GFP, cherry-pick, dose response (AID 977622). As to conditions: E. coli mixed culture, 24 h, total growth OD600 at 50 uM.
The subject of assay [2] is E. coli h38 humanized mutant ribosome RFP fluorescence, mixed culture, 24 h. The description is as above. Conditions: h38 mutant RFP at 50 uM.

SMILES strings stand for the structures. The list shows a part of the results. These are further read-outs of the screen, such as a control signal, another cell line or another target. No call is given for them.

Turning to `COc1ccc(S(=O)(=O)n2cccc2)cc1`, the activity change is -6.73% in assay [1] and 0.916% in assay [2]. For the molecule `O=C(Nc1ccc(Cl)cc1)N1C[C@H]2[C@@H](c3ccccc31)[C@H](CO)N2C(=O)c1ccccn1`, in assay [1], the activity change was -56.4%.

On to `CCCCc1ccc(S(=O)(=O)Nc2ccc(C)c(NS(C)(=O)=O)c2)cc1`, for which the values for the activity change in assay [1] and in assay [2] were -47.2% and -14.8%, respectively. The corresponding values for `Cc1onc(-c2c(Cl)cccc2Cl)c1C(=O)Nc1ccc(Cl)cn1` are -7.94% and 15.2%. For the molecule `C[C@@H]1CN([C@H](C)CO)C(=O)c2c(c3ccccc3n2C)-c2ccccc2CO[C@@H]1CN(C)C(=O)CCN(C)C`, the figures for the activity change in assay [1] and in assay [2] were -2.97% and 2.51%, respectively. As to `C[C@@H]1CN([C@@H](C)CO)C(=O)c2cccc(NC(=O)c3nc4ccccc4s3)c2O[C@@H]1CN(C)CC1CC1`, the activity change in assay [1] was -8.17%; in assay [2] it was 2.18%. The corresponding values for `Nc1nc(Nc2ccccc2F)nc(N2CCOCC2)c1[N+](=O)[O-]` are -3.7% and 6.83%. In the case of `CCn1c(CCCOc2ccc(Cl)cc2Cl)n[nH]c1=S`, the activity change was -82.1% in assay [1] and -28.8% in assay [2]. As to `CCc1nnc(NS(=O)(=O)c2ccc(NC(=O)c3cc(Cl)ccc3[N+](=O)[O-])cc2)s1`, the activity change in assay [1] was -40.3%. `O=C(Nc1ccc(Cl)c(Cl)c1)N[C@@H]1CC[C@@H](CCn2cc(C3CCCCC3)nn2)O[C@H]1CO`: the activity change was -19% in assay [1] and -11.8% in assay [2]. For the molecule `COc1cccc(S(=O)(=O)N2CCCCN3[C@H](CO)[C@H](c4ccc(C5=CCCCC5)cc4)[C@H]3C2)c1`, the activity change is -53.4% in assay [1] and -35.4% in assay [2]. The corresponding values for `CC(C)Oc1cccc(C(=O)C2CCCN(C(=O)c3cc(C(F)(F)F)[nH]n3)C2)c1` (stereo not drawn) are -52.8% and -5.69%. The corresponding values for `O=C(NCc1ccc2c(c1)OCO2)C1CCCN1S(=O)(=O)c1ccc(Cl)cc1` (stereo not drawn) are -25.6% and 31.4%. The corresponding values for `Cc1noc(NS(=O)(=O)c2ccc(NC(=O)c3cc(-c4ccccc4Cl)nc4ccccc34)cc2)c1C` are -35.9% and -30.4%.

Take `Cc1nc(N2CCCCC2)c(C#N)c(C)c1[N+](=O)[O-]`: in assay [1], the activity change is -70.8%.

Regarding `Cc1cccc(C)c1Nc1ncnc2ccccc12`, the activity change was -39.6% in assay [1] and -28.1% in assay [2]. As for `COc1cc[n+]([O-])cc1[N+](=O)[O-]`, in assay [1], the activity change is -3.57%.

`O=C(Cc1ccc(NC(=O)C2CCCN(C(=O)CCc3ccccc3)C2)cc1)Nc1cccc(C(=O)N2CCCC2)c1` (stereo not drawn): the values for the activity change in assay [1] and in assay [2] were -23.2% and -9.07%, respectively.

Take `COc1ccc(C(=O)COc2ccc(F)cc2)c(O)c1`: the activity change in assay [1] is -0.444%; in assay [2], -11.1%. With `COc1ccccc1CC(=O)NCc1csc(-c2cccs2)n1`, the activity change in assay [2] came to 1.76%. Consider `COc1ccc(-c2csc(NC(=O)c3ccoc3C)n2)cc1`, for which the activity change in assay [1] is -20.7%; in assay [2], -19.1%. `Cc1noc(C)c1NC(=O)Nc1ccc2c(c1)C(=O)N([C@@H](C)CO)C[C@H](C)[C@H](CN(C)C(=O)Nc1ccc3c(c1)OCO3)OCCCC[C@H](C)O2`: the activity change in assay [1] was -4.81%; in assay [2] it was 20.2%. For the molecule `O=C(NOCc1ccccc1)c1coc(-c2ccccc2)n1`, the activity change in assay [1] was -14.1%; in assay [2] it was 3.23%. The corresponding values for `CS(=O)(=O)N(CC(=O)N1CCc2ccccc2C1)c1ccc(Br)cc1` are -45.2% and -10.1%. As for `COc1cccc(NC(=O)C2CCC(CNS(=O)(=O)c3cccs3)CC2)c1` (stereo not drawn), the values for the activity change in assay [1] and in assay [2] were -49.9% and -21.9%, respectively. The corresponding values for `CC(C)(C)c1ccc(N2C(=O)CSC2c2cccnc2)cc1` (stereo not drawn) are -27.7% and 39.4%. Regarding `CC1CCCCN1C(=O)C1CCCN(S(=O)(=O)c2cccc3nsnc23)C1` (stereo not drawn), the activity change in assay [1] was -38.1%; in assay [2], -29.6%. The corresponding values for `O=C(C[C@@H]1CC[C@@H]2[C@H](COC[C@H](O)CN2C(=O)Nc2ccc(Cl)cc2)O1)N1CCCCC1` are -62.7% and 74.9%. The corresponding values for `O=C(Nc1ccc(Cl)c(Cl)c1)N[C@H]1CC[C@@H](CCn2cc(C3CCCCC3)nn2)O[C@@H]1CO` are -76.2% and 14.9%. The corresponding values for `O=C(Nc1ccccc1Cl)N1C[C@H]2[C@@H](c3ccccc31)[C@H](CO)N2Cc1ccccc1` are -73.4% and 56.4%. In the case of `C[C@@H]1CN([C@@H](C)CO)C(=O)c2cccc(NC(=O)Nc3ccccc3)c2O[C@@H]1CN(C)S(=O)(=O)c1ccc(Cl)cc1`, the activity change was -82.4% in assay [1] and 7.93% in assay [2]. On to `O=C(NCc1cccnc1)c1ccc(COc2ccc3c(c2)CCC3)o1`, for which the activity change in assay [1] is -47.2%; in assay [2] it was -7.28%.

As for `CCOC(=O)C1CCCN(Cc2c(Cl)cccc2Cl)C1` (stereo not drawn), the activity change is -3.35% in assay [1] and -1.64% in assay [2]. The corresponding values for `COc1ccccc1-c1cc2nc(NCCc3ccncc3)ccn2n1` are -38.2% and -5.89%. In the case of `Cc1ccc2ccccc2c1CSc1nc(N)nc2c1ncn2CC(C)C`, the activity change in assay [1] was -44.1%; in assay [2] it was -28.3%. The corresponding values for `C=CCn1c(SCC(=O)N2CCCC2=O)nc2sc(CC)cc2c1=O` are 6.21% and 69.5%. The corresponding values for `O=C(Nc1ccc(Cl)cc1)N1C[C@@H]2[C@H](c3ccccc31)[C@@H](CO)N2C(=O)c1ccccn1` are -53.7% and 59.2%. `O=[N+]([O-])c1ccc(/C=C/c2ccc3cccc([N+](=O)[O-])c3n2)cc1`: the activity change in assay [1] is -2.69%. The same measure, in the same setting: in the case of `COc1ccc(N2C(=O)C3C(C2=O)C3(c2ccccc2)c2ccccc2)cc1` (stereo not drawn) it was -59.9%. Take `CCOc1ccc(CN(C)C(=O)c2ccc(NS(=O)(=O)c3ccc4[nH]c(=O)[nH]c4c3)cc2)cc1`: the activity change in assay [1] was -24.4%; in assay [2], 1.49%. On to `CCCC(=O)N(CCc1ccc(OC)cc1)Cc1nc2ccccc2c(=O)[nH]1`, for which the activity change in assay [2] was found to be 7.93%. Consider `CCn1ccnc1CN1CCCC(C(=O)c2ccc3cc(OC)ccc3c2)C1` (stereo not drawn), for which the results for the activity change in assay [1] and in assay [2] were -21.2% and 37.2%, respectively. `Cc1noc(C)c1S(=O)(=O)N(Cc1ccccc1)C(C)C`: the activity change in assay [1] was -11.3%; in assay [2], -14.6%.
